Assay results published in patent publication US6812243B2, “Indole derivatives and their use for the treatment of malignant and other diseases based on pathological proliferation” (Zentaris AG, priority 1998, dated 2004).

Structure (SMILES): CC(=O)Oc1ccc2[nH]c(C(=O)c3cc4ccccc4[nH]3)cc2c1 [Example 53]
- melting point: 223 to 224 °C
